These are yes or no findings as the source states them, for the method shown. Binding seen in cells or lysates may run through a third protein. Some entries that bind do so weakly or less than the wild type.
Biological target: importin-β, endogenous (Xenopus laevis (endogenous in Xenopus egg extract)) (UniProt P52297)
Assay: pull-down

Amino acid sequences for entries named in this document (tags omitted).
UniProt P52297: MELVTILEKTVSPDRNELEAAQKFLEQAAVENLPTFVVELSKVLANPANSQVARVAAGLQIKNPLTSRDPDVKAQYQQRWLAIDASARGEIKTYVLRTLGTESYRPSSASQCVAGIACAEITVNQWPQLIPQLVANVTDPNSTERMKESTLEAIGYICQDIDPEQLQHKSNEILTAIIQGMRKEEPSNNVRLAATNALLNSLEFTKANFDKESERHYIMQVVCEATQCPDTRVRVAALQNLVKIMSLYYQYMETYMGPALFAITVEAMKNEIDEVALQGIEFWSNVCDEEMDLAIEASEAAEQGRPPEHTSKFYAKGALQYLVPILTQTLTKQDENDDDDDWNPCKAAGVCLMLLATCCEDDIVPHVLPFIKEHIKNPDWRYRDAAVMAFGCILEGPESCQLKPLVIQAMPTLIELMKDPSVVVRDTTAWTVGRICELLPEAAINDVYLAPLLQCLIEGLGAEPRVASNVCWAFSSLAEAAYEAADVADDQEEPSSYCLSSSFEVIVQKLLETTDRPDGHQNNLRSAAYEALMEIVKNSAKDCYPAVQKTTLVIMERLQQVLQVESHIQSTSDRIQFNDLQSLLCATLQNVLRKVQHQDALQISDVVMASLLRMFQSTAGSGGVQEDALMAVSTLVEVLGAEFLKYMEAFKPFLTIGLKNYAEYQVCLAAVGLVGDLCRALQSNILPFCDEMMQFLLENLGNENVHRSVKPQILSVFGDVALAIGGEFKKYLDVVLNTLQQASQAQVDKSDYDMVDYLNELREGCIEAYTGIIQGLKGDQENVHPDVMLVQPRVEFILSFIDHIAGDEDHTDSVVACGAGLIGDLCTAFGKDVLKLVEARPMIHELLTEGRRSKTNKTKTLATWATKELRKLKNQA

B1: TPX2 (Targeting protein for Xklp2-A), endogenous (protein, UniProt Q6NUF4 1-716)
chain: MEDTQDTYSYDAPSIFNFSSFHEDHNADSWFDQVTNAENIPPDQRRLSETSVNTEQNSKVEPVQTTPSKDDVSNSATHVCDVKSQSKRSSRRMSKKHRQKLLVKMKDTHLEKETAPPEYPPCKKLKGSSSKGRHAPVIKSQSTSSHHSMTSPKPKAQLTMPSTPTVLKRRNVLVKAKNSEEQELEKMQELQKEMLENLKKNEHSMKVAITGAGQPVKTFIPVTKPVDFHFKTDDRLKRTANQPEGDGYKAVDFASELRKHPPSPVQVTKGGHTVPKPFNLSKGKRKHEEASDYVSTAEQVIAFYKRTPARYHLRSRQREMEGPSPVKMIKTKLTNPKTPLLQTKGRHRPVTCKSAAELEAEELEMINQYKFKAQELDTRILEGGPVLLKKPLVKEPTKAIGFDLEIEKRIQQREKKEEIEEETFTFHSRPCPSKMLTDVVGVPLKKLLPVTVPQSPAFALKNRVRIPAQEEKQEEMVPVIKATRMPHYGVPFKPKLVEQRQVDVCPFSFCDRDKERQLQKEKRLDELRKDEVPKFKAQPLPQFDNIRLPEKKVKMPTQQEPFDLEIEKRGASKLQRWQQQIQEELKQQKEMVVFKARPNTVVHQEPFVPKKENRSLTESLSGSIVQEGFELATAKRAKERQEFDKCLAETEAQKSLLEEEIRKRREEEEKEEISQLRQELVHKAKPIRKYRAVEVKASDVPLTVPRSPNFSDRFKC
In the case of B1, the binding is reported as “binds”.

Source: publication doi:10.1101/102806
